Reference: article PMC7819943, “Rice protein-binding microarrays: a tool to detect cis-acting elements near promoter regions in rice”
The list shows a part of the results.

Amino acid sequences for entries named in this document (tags omitted).
UniProt Q0JBA9, entry or part of it: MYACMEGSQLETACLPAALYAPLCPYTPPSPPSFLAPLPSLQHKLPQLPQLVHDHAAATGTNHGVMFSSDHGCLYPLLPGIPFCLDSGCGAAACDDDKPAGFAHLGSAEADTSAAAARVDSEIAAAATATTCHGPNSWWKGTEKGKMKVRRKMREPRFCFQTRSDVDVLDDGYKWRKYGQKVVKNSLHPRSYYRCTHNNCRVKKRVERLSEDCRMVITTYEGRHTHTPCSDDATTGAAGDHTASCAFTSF

biological target: OsWRKY34 (Oryza sativa, UniProt Q0JBA9 1-250); assay: protein-binding microarray (RPBM); PBS, 2% BSA, 51.3 ng/ul salmon testes DNA, 50 uM zinc acetate, 200 nM TF, 25 C, 1 h; high values mean tight binding; settings: protein: recombinant; tags: N-terminal polyhistidine and DsRed monomer fusion (pET32a); label: CyDye5-dUTP incorporated in the synthesized complementary strand; 3' TTTTT single-stranded linker to array surface; dsDNA, one strand shown
Procedure, shortened: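 The binding signal is fluorescence intensity per array feature (arbitrary units). Readings came from an Axon 4000B scanner after a washed, 2% BSA-blocked, double-stranded custom Agilent array had been incubated for 1 h at 25 °C with 200 nM protein and 50 µM zinc acetate. The protein was a Ni–NTA-purified transcription factor fused N-terminally to polyhistidine and DsRed, expressed in E. coli BL21-CodonPlus.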

Sequence | binding signal
AGATCGATTGATGATATCTCTCGGTTATGACTTTTAGTAGCGGAGTCACCTAGTGCAG | 9070 fluorescence intensity (a.u.)
AACTTCACAGTCAAATTTGCCAGCCAGTACACACCCCACACGGAGTCACCTAGTGCAG | 9840 fluorescence intensity (a.u.)
GCATTTGGTCCAATCTCACATTCTTGACCATTTCGAGTACCGGAGTCACCTAGTGCAG | 10000 fluorescence intensity (a.u.)
GTGTTAGTTTGGATTTGTGTTTGTCCTTTTTCTTTTAGCTCGGAGTCACCTAGTGCAG | 9040 fluorescence intensity (a.u.)
ATCTTCCTTGTCTCTCTCAACAAACATATATCACGCTGCTCGGAGTCACCTAGTGCAG | 9690 fluorescence intensity (a.u.)
CGCTGCACTTGATCCGCCGCTGCGCCGCCTCTCGATTCGACGGAGTCACCTAGTGCAG | 9410 fluorescence intensity (a.u.)
GCACACCTCACTGGCACTGAGCGCACTTCACTAGGCGAGACGGAGTCACCTAGTGCAG | 9100 fluorescence intensity (a.u.)
CGTTTTTGCTTGAAGTTACTGTGGTAGATTGGGGTTTTGACGGAGTCACCTAGTGCAG | 8900 fluorescence intensity (a.u.)
AGGGCAGCTGCTCTGTTTTCCTGCAGGTGTATATGCTGAACGGAGTCACCTAGTGCAG | 8120 fluorescence intensity (a.u.)
TCTCTGTCAGTTTTGATGTGGTTGTAATATTGGATTTGGCCGGAGTCACCTAGTGCAG | 9520 fluorescence intensity (a.u.)
CCCAGCTACATAACTGGGCTAATGCGATTCCAGCATCTTACGGAGTCACCTAGTGCAG | 8660 fluorescence intensity (a.u.)
AAATCTTAACCCTCTCGCCTCACTCCGTTCCGTTCCTGTGCGGAGTCACCTAGTGCAG | 8020 fluorescence intensity (a.u.)
GGATGTTGTGTAAGGGTGTTAATTACTGATTGGTCATTAGCGGAGTCACCTAGTGCAG | 8670 fluorescence intensity (a.u.)
GCCAACCTCCGTCCTAAAGGTGTGCCTTTTATATCTCTCCCGGAGTCACCTAGTGCAG | 8880 fluorescence intensity (a.u.)
CGATCCAATCGCCGTACCAAACATAGTCTTTTATTCTCCACGGAGTCACCTAGTGCAG | 9500 fluorescence intensity (a.u.)
AGGCGCCACGACGGAACGGGCGCTACATCTTATCTCTTCTCGGAGTCACCTAGTGCAG | 8680 fluorescence intensity (a.u.)
TGGTTTTCTGTTTTCTTGGTTTTGGGTGGTGGCAGTTGACCGGAGTCACCTAGTGCAG | 23200 fluorescence intensity (a.u.)
CCATTTCCAGCAAGTCCACGGCTTTACGGCTGCTTGCTTTCGGAGTCACCTAGTGCAG | 8160 fluorescence intensity (a.u.)
AATCAGCCTCACACATTCTTGTGTTCGTAATTTACATGTTCGGAGTCACCTAGTGCAG | 8610 fluorescence intensity (a.u.)
TTTACCAAACCGTTTGAGATGGCCCTACTGTTACAATCGCCGGAGTCACCTAGTGCAG | 8200 fluorescence intensity (a.u.)
CACTACCAACGTCCACCGGCACCGCAACTTGCTGTCCTCTCGGAGTCACCTAGTGCAG | 11000 fluorescence intensity (a.u.)

Sequence | binding signal
ATGTGCTCGTGCTTGACTAATTCCGGTATACCACGTACTCCGGAGTCACCTAGTGCAG | 8050 fluorescence intensity (a.u.)
TTTATATACTGGAGTTGCGGATTTCCCTATCATGCAAGTTCGGAGTCACCTAGTGCAG | 8250 fluorescence intensity (a.u.)
AGGTTTGTGTGTGATTAGGGCTAGGTGGTGGGCAAAGGATCGGAGTCACCTAGTGCAG | 12700 fluorescence intensity (a.u.)
GTTTGAATTCACTTCAAATTCGGTTCATATTTGATACTTCCGGAGTCACCTAGTGCAG | 8040 fluorescence intensity (a.u.)
CTGATGATCCATTATCCCATCCCTCTCATTATTTATTTCCCGGAGTCACCTAGTGCAG | 8090 fluorescence intensity (a.u.)
GTGTTGACTGTAATTAATGTCTTTTTTTTATAGATGATGACGGAGTCACCTAGTGCAG | 8140 fluorescence intensity (a.u.)
AGCTCGTTTTTCCCAACATGGCCACGTCACTGCCGGCCAGCGGAGTCACCTAGTGCAG | 8070 fluorescence intensity (a.u.)
GCACACTTCCGTCACCTCCGTCGCCGGCGAAAATCCTCTTCGGAGTCACCTAGTGCAG | 11100 fluorescence intensity (a.u.)
TGTCTCACTCCGTACCTTGTTCGCCGCAACGGCGTTCTCCCGGAGTCACCTAGTGCAG | 8160 fluorescence intensity (a.u.)
AACCTTTCTATAGATTTTTTTTTTTTACAAAAACACATCACGGAGTCACCTAGTGCAG | 11700 fluorescence intensity (a.u.)
TCCCCGCGCCTACGTGTGCGCCATCGCCTACCGCATTCAGCGGAGTCACCTAGTGCAG | 8800 fluorescence intensity (a.u.)
TATTTTACGCTCGTATTCATGTCAGAAACATGTTTTTCTCCGGAGTCACCTAGTGCAG | 8320 fluorescence intensity (a.u.)
CAAACTGTCTTATCAGAAGGCTACTATTATTGTCTTCGTCCGGAGTCACCTAGTGCAG | 9340 fluorescence intensity (a.u.)
TATTAATCTTATGTACAGCCAGACCCTTTTTTTTTTCTTTCGGAGTCACCTAGTGCAG | 8760 fluorescence intensity (a.u.)
TTACCTGCCTTCACATTGCTGCCTCATACTCCTTTTTTTTCGGAGTCACCTAGTGCAG | 16300 fluorescence intensity (a.u.)
ATCTTCAACCTAACACAGCACCTAGCTAGTACTTGCATGCCGGAGTCACCTAGTGCAG | 9360 fluorescence intensity (a.u.)
TCGATTCCGATTGCGATTGAAGGTCTGTTCTTCTATTTATCGGAGTCACCTAGTGCAG | 8700 fluorescence intensity (a.u.)
TTCTCCCATTGTACGTATCTCTCAATTAATTTCGTCCTAACGGAGTCACCTAGTGCAG | 15300 fluorescence intensity (a.u.)
GCCTTTCCACATTCCTGGCTCTTCTACATCCCGCTTTTCACGGAGTCACCTAGTGCAG | 12000 fluorescence intensity (a.u.)
GCGTCTGTATTCTCCTCAGTTGGATACTTGGATGACTCCACGGAGTCACCTAGTGCAG | 8240 fluorescence intensity (a.u.)
GTAGTAACTGGGGATAGAAAAGGTTTATCTGTATTGTCTTCGGAGTCACCTAGTGCAG | 8600 fluorescence intensity (a.u.)

Sequence | binding signal
TACCTTTGGTGCACTTTGGACCACCTTCTTTAGCTGTATTCGGAGTCACCTAGTGCAG | 9220 fluorescence intensity (a.u.)
TTGTTGAATTGCTATATGTTTGATCAATTTGATCACGTTTCGGAGTCACCTAGTGCAG | 9060 fluorescence intensity (a.u.)
CCGCCATCGCCGCCGCCATCCGTTGACCATGGCTTCAGCCCGGAGTCACCTAGTGCAG | 18900 fluorescence intensity (a.u.)
CCATCGCCACCGCCCGCAGCTTCACCCCGCTGCTCCGACGCGGAGTCACCTAGTGCAG | 8480 fluorescence intensity (a.u.)
AATTTGTTTGGCTGAGTGGCTTTACATTCATTTCTCTATACGGAGTCACCTAGTGCAG | 9720 fluorescence intensity (a.u.)
TCCTACTGTAATTCGTTTCTCCTGTTTTTTCTTTCCGTTTCGGAGTCACCTAGTGCAG | 12700 fluorescence intensity (a.u.)
CATTTCTTCTCTAGCGTTACGCTGTCCCTTCTCTCGGTGACGGAGTCACCTAGTGCAG | 8410 fluorescence intensity (a.u.)
CCTTTTCAGCCCTAGCCCGGTCCGTTGACTCCTACCTCCTCGGAGTCACCTAGTGCAG | 12400 fluorescence intensity (a.u.)
CTGTTCAAATTGATATCCCTTAAGATTCGTGCTATGATTACGGAGTCACCTAGTGCAG | 8820 fluorescence intensity (a.u.)
GCTCGCTCTCGCCGCCTGCCGCTCGCTTCCACCACCCGTCCGGAGTCACCTAGTGCAG | 8380 fluorescence intensity (a.u.)
GGACAGACACGACCAACCAACGCACCCCACCCAACCCAACCGGAGTCACCTAGTGCAG | 8900 fluorescence intensity (a.u.)
TTGACTTGCTTCTTATGTGAGGCTGCATTACATGTTCTACCGGAGTCACCTAGTGCAG | 8710 fluorescence intensity (a.u.)
ACAAATCTACGTTTCATCTAGTTATATGTTGCTATATTTTCGGAGTCACCTAGTGCAG | 11100 fluorescence intensity (a.u.)
GTCCACCCCTACCCACCGTTGGATCCACCGCGGCAGCCGCCGGAGTCACCTAGTGCAG | 9180 fluorescence intensity (a.u.)
TGTGAGACGTGGGTTTGGTTTTGGCGCGGTTTGGGTCAAACGGAGTCACCTAGTGCAG | 8030 fluorescence intensity (a.u.)
TTGGGGATGACCTGGGTTGGGTGCCTTCAAATTAAATTCCCGGAGTCACCTAGTGCAG | 10000 fluorescence intensity (a.u.)
TTTATTTTTAGGGTTTGTGGTGGTCATATGAAGGGAGGAACGGAGTCACCTAGTGCAG | 8090 fluorescence intensity (a.u.)
TCTTTTTTTTATCATATTTCATATTTGACCTATTTTTTTTCGGAGTCACCTAGTGCAG | 10100 fluorescence intensity (a.u.)
ACCATATCTTTTGTTCTTATATATGATTATTAATATTTTCCGGAGTCACCTAGTGCAG | 8180 fluorescence intensity (a.u.)
ATCCTAATCCGTTTTGTCATCCTCCTATTGAGCGGTGGTCCGGAGTCACCTAGTGCAG | 8520 fluorescence intensity (a.u.)
GTCTCTCTACTCCCGGATATAAACCTTTCGCGCACGGCCACGGAGTCACCTAGTGCAG | 8980 fluorescence intensity (a.u.)

A run of entries from the list above, for reference:
Sequence | binding signal
ACCATATCTTTTGTTCTTATATATGATTATTAATATTTTCCGGAGTCACCTAGTGCAG | 8180 fluorescence intensity (a.u.)
ATCCTAATCCGTTTTGTCATCCTCCTATTGAGCGGTGGTCCGGAGTCACCTAGTGCAG | 8520 fluorescence intensity (a.u.)
GTCTCTCTACTCCCGGATATAAACCTTTCGCGCACGGCCACGGAGTCACCTAGTGCAG | 8980 fluorescence intensity (a.u.)

Further entries

Sequence | binding signal
AATAAACGTTGACCAGTATGATGTCGCCACCGATATGGACCGGAGTCACCTAGTGCAG | 9520 fluorescence intensity (a.u.)
GTTACTGCACATTGACCATCGCGTTACTGCACCGTTCTGCCGGAGTCACCTAGTGCAG | 8940 fluorescence intensity (a.u.)
GGGTGTTGGTTGTGTGTGGTGGCTGCCAAATGGCTCGTGGCGGAGTCACCTAGTGCAG | 9220 fluorescence intensity (a.u.)
GTTGACTTTTTTTAAAATATGTTTGACCGTTCATATTATTCGGAGTCACCTAGTGCAG | 8770 fluorescence intensity (a.u.)
TATATATTTTTCCTATATTCTAAATTCCTATATTGTTTCTCGGAGTCACCTAGTGCAG | 8110 fluorescence intensity (a.u.)
CTGTATAAATGCGGCACAATCCCCTGTACTGATCAGCGATCGGAGTCACCTAGTGCAG | 8080 fluorescence intensity (a.u.)
GAGTGTGGCGGGTTCTATCTTTCTTTCCTTTTCTATTTGGCGGAGTCACCTAGTGCAG | 11800 fluorescence intensity (a.u.)
ATTCCGTTTCAATTTTTTGCAGCCTGTTGTGTTCCTCCATCGGAGTCACCTAGTGCAG | 9090 fluorescence intensity (a.u.)
GGTGTAGGTCTATTGTCGTCTCTTCTCAAGCGCATTGATCCGGAGTCACCTAGTGCAG | 9600 fluorescence intensity (a.u.)
TATGTCTGATAATTCTCCATCCTAGTTTTATCCTTCTTTGCGGAGTCACCTAGTGCAG | 8460 fluorescence intensity (a.u.)
CTCTCCCCTAGGCCCTCTGACGTAGCCAACTTGCGGAAGCCGGAGTCACCTAGTGCAG | 8380 fluorescence intensity (a.u.)
AAAGTTATCATACAAAAATCCAATCCTTAATTATTCTCTTCGGAGTCACCTAGTGCAG | 8330 fluorescence intensity (a.u.)
ACTAGCTACCAGCCTTCTACTACTAACACCCACCCGGCCGCGGAGTCACCTAGTGCAG | 8200 fluorescence intensity (a.u.)
AAATTTAGGTGGAGGGGTGTGGGCGGTTTCGTGCAAAAATCGGAGTCACCTAGTGCAG | 19100 fluorescence intensity (a.u.)
GATCCTGTTCTTCGCATCCATCCATTGCCGCTGGTCGCACCGGAGTCACCTAGTGCAG | 10900 fluorescence intensity (a.u.)
TTTTGTATATTTATTTTTTAAAAACGTATCTTTAGCAGTTCGGAGTCACCTAGTGCAG | 8660 fluorescence intensity (a.u.)
TGTCATTTTCTATTTTAGTCCTCATATTTTGTAATTTTTACGGAGTCACCTAGTGCAG | 9390 fluorescence intensity (a.u.)
TGGTACACTGAAATTTTTTTCTTCTTGATCCCCTGGTCTTCGGAGTCACCTAGTGCAG | 8840 fluorescence intensity (a.u.)
TCACGCCGGTTCGTTTTCACTCCGTTTTCGGTTTCGATAACGGAGTCACCTAGTGCAG | 8560 fluorescence intensity (a.u.)
CTTCAACTTTCTCGTTTTCCGTCAGCACGCTTTCCAAACTCGGAGTCACCTAGTGCAG | 9080 fluorescence intensity (a.u.)
CTACCAGTTATATCTTTTGCTATGCATAGGCATATCATGTCGGAGTCACCTAGTGCAG | 9620 fluorescence intensity (a.u.)
